Measured values taken from PMC9586930 (Nature Communications, 2022).

Assay: peptide made by a vendor
Settings: whole synthesis, 220nm

Substance	final HPLC purity [%]
H-AVAEHQLMHQRGKWIQDARRRAFLHKLIAEIHTAEI-OH	99.36
H-SVSEHQLMHNLGKHLNSMERVEWLRKKLQDVHNF-OH	95.33
H-SVSEIQLMHNLGKHLNSMERVEWLRKKLQDVHNF-OH	95.10
H-AVAEIQLMHQRAKWIQDARRRAFLHKLIAEIHTAEI-OH	95.32
H-AVAEHQLMHQLAKWIQDARRRAFLHKLIAEIHTAEI-OH	97.52
H-SVAEHQLMHQRAKWIQDARRRAFLHKLIAEIHTAEI-OH	95.35
H-AVAEHQLMHQRAKWLNSMERVEWLRKKLQDVHNF-OH	95.24
H-SVSEHQLMHNLGKHIQDARRRAFLHKLIAEIHTAEI-OH	95.52
H-AVAEHQLMHQRAKWIQDLRRRFFLHHLIAEIHTAEI-NH2	96.98
H-AVAEHQLMHNRAKWIQDARRRAFLHKLIAEIHTAEI-OH	95.98
H-AVSEIQLLHDKGKSIQDLRRRELLEKLL-{Aib}-KLHTA-NH2	97.36
H-AVAEIQLLHQRAKWIQDARRRAFLHKLIAEIHTAEI	97.82
H-AVAEIQLMHQRAKSIQDARRRAFLHKLIAEIHTAEI	95.28
H-AVAEHQLMHQRAKWIQDARRRAFLHKLIAEIHTAEI	95.22
H-AVAEHQLMHQRAKHIQDARRRAFLHKLIAEIHTAEI-OH	95.39
H-AVSEHQLMHQRAKWIQDARRRAFLHKLIAEIHTAEI-OH	95.66
H-AVSEHQLLHDKGKSIQDLRRRELLEKLL-{Aib}-KLHTA-NH2	95.58
